Test results reported in patent US7692011B2, “8-hydroxy and 8-mercapto quinazolinones” (Prana Biotechnology Limited, priority 2002, dated 2010).
For at least one compound, name, drawing or mass did not settle the structure.

Experiments:
Aβ accumulation = conditions: 20-30 mg/kg orally daily, five days per week, 2-3 months; cited from earlier work
[1] = test system: moderately severe AD patients; experiment: Phase II clinical trial in Alzheimer's disease: cognition (ADAS-cog); assay type: in vivo, human; conditions: more-severely affected patients (baseline ADAS-cog≧25), 36 weeks, oral
From the text: The performance of the less-severely affected group (ADAS-cog<25) deteriorated negligibly over this interval, so cognitive changes could not be discriminated in this stratum.
Study population: The study took place at the AD clinical trials unit, Mental Health Research Institute of Victoria and at the Royal Melbourne Hospital. Criteria for inclusion in the study were: informed consent; a diagnosis of probable AD by NINCDS-ADRDA criteria (McKhann et al., 1984); AD Assessment Scale-cognitive (ADAS-cog) (Rosen et al., 1984) score of 18-45; Mini Mental State Examination (MMSE) (Folstein et al., 1975) score of 10-24; on donepezil 5 mg or 10 mg for at least 6 months; relative or carer willing and able to support the trial; able to complete trial examinations; primary sensorial functions intact.
Study design: The study was a double blind, placebo-controlled, parallel group randomized design. […] The duration of the study was 36 weeks.
Outcome measures: The primary clinical efficacy variable was a change from baseline score on the ADAS-cog conducted at baseline and at weeks 4, 12, 24 and 36. […]
Data preparation and statistical analysis: Data monitoring and management were undertaken by independent contractors (Kendle International and Health Research Solutions, Melbourne). […] Differences between groups on categorical measures were analysed using exact statistical methods in order to maximise power. […]

Oc1c(I)cc(Cl)c2cccnc12 [PBT-1, iodochlorohydroxyquinoline]
Inhibition of Aβ accumulation in transgenic mice (Aβ accumulation): markedly effective at inhibiting Aβ accumulation | Effect of treatment on cognitive deterioration (ADAS-cog) [1]: statistically significant in preventing cognitive deterioration
